Article PMC13384796
Results are given in words; binding and its absence hold for the method and conditions named. Some entries that bind do so weakly or less than the wild type.

Chains of the proteins cited; added tags and fusions are not shown. Residues count along the entry.
UniProt P01267, residues 20-2769: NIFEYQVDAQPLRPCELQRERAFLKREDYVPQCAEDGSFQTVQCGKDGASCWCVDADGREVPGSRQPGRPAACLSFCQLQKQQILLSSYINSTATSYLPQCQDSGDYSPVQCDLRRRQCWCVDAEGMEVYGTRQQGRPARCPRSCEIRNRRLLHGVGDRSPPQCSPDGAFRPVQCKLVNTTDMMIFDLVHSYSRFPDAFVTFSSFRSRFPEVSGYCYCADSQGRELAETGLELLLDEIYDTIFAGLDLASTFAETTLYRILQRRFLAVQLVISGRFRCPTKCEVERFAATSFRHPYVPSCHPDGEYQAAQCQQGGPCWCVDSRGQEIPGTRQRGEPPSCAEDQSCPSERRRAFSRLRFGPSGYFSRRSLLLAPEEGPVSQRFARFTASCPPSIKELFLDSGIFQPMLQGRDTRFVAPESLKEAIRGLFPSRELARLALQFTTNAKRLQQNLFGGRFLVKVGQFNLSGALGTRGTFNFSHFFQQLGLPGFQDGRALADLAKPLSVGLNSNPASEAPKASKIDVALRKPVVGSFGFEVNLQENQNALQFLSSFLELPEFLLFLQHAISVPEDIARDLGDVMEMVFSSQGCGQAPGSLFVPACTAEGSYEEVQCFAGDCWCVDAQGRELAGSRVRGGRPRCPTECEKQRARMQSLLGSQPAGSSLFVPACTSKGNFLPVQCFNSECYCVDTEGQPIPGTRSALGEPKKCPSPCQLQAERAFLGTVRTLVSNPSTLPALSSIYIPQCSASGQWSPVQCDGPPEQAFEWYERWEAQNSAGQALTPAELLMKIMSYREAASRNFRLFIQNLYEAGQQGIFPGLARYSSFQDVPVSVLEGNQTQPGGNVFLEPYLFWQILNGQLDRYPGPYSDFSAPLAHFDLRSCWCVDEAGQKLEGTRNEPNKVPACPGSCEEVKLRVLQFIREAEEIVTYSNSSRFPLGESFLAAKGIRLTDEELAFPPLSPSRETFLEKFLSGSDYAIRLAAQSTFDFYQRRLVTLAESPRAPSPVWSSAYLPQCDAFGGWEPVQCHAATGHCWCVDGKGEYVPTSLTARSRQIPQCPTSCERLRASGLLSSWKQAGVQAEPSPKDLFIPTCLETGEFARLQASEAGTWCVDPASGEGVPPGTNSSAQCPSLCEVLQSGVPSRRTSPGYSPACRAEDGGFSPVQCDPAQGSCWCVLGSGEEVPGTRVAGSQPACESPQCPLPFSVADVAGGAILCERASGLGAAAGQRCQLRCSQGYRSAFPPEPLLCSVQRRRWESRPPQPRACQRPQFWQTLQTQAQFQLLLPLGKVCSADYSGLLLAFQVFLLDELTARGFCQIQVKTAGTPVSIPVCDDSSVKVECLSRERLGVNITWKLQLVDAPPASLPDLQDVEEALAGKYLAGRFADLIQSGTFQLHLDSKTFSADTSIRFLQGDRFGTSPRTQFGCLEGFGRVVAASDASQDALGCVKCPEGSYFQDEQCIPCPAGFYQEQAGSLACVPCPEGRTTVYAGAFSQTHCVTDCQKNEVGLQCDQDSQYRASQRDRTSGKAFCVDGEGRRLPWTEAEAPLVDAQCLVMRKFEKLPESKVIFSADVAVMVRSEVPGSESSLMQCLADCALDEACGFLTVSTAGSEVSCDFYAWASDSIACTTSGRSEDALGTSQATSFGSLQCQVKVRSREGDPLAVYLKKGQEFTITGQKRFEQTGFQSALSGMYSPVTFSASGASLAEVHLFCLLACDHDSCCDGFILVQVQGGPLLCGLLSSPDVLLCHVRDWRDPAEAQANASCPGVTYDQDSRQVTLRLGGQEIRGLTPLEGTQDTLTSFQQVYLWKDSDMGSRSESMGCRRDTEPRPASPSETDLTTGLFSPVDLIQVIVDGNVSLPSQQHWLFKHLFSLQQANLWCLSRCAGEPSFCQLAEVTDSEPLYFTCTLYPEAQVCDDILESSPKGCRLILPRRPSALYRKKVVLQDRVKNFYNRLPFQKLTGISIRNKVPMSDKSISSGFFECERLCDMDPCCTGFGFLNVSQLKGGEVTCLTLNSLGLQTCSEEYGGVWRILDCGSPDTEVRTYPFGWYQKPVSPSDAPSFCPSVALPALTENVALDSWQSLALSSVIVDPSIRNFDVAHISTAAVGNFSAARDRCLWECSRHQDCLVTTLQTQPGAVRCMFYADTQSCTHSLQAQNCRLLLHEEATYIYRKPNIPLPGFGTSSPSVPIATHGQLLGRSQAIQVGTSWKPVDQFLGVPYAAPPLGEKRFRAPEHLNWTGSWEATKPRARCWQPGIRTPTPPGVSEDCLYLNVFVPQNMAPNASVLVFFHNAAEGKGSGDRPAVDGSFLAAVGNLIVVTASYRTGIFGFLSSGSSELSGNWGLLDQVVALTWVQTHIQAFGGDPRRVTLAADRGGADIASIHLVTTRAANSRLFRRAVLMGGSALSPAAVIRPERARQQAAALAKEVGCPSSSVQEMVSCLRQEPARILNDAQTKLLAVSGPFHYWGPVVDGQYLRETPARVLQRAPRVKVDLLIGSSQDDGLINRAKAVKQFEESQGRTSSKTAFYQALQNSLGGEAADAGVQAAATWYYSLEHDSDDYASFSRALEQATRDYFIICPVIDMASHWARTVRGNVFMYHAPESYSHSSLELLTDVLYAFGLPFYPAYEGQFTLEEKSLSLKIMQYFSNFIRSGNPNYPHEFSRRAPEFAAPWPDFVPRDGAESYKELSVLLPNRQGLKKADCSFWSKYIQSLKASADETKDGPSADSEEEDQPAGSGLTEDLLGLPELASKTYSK

How the values were obtained:
[1] = molecular target: bovine thyroglobulin (bovine) (UniProt P01267); experiment: ELISA; glycoprotein immobilised on MaxiSorp plates (sodium carbonate buffer pH 9.6, overnight); varying concentrations of biotinylated lectin; detected with fluorescent streptavidin; both purified
[2] = molecular target: bovine thyroglobulin (bovine) (UniProt P01267); experiment: ELISA; ELISA-type competitive inhibition assay: thyroglobulin (5 µg/mL) or mucin (100 µg/mL) immobilised; 10 µg/mL biotinylated lectin incubated for 1 h together with varying concentrations of glyco-nanogel or free saccharide in PBS with 0.1 mM CaCl2; Atto488-streptavidin read-out; both purified

B1: Pseudomonas aeruginosa lectin LecA (protein, UniProt Q05097 1-122)
chain: MAWKGEVLANNEAGQVTSIIYNPGDVITIVAAGWASYGPTQKWGPQGDREHPDQGLICHDAFCGALVMKIGNSGTIPVNTGLFRWVAPNNVQGAITLIYNDVPGTYGNNSGSFSVNIGKDQS
modifications: biotin-labeled (site not stated)
binding [1]: binds | binding [2]: binds
